Measured values: US12083134B2, “Anacardic acid for neural repair” (Vanderbilt University, priority 2018, dated 2024)

System: IL-33 expression in OPCs
Test: q-PCR on the induction of IL-33 in OPCs cultured with AA
Assay type: cell-based, rat
Conditions: 3 h, 20 ng/cDNA; for GAPDH (ct): control gene
Method: The effect of AA on the expression of myelin genes, MBP, and IL-33 was examined. […] Natarajan et al., PLOS One, 11(3):e0152163 (2016); Sriram et al., Neurology, Abstract presented at the American Academy of Neurology, 2016 (2016). The studies were done in OPCs obtained from rat pups. OPCs were treated with AA (2.5 μM) for 3 hours and message levels were quantified using qPCR analysis. OPCs treated with AA induced the major myelin genes Mbp, Mog and Plp.
The expression of IL-33 induced by AA in OPCs was also examined. […] (FIG. 3). The data is expressed as fold change compared to the control protein GAPDH.

## CCCCCCCCCCCCCCCc1cccc(O)c1C(=O)O [AA, anacardic acid]
AA 2.5 μM
  IL-33 (ct): 30.72 ct
  GAPDH (ct): 28.285 ct
AA 5 μM
  IL-33 (ct): 30.41 ct
  GAPDH (ct): 27.135 ct
